Residue numbers refer to the chain shown, from its start. No constants are given. Whether binding was seen depends on the method and setting. Where a sequence is shown, tags or fusion partners need not be part of it.
B1: sdAb 15 (clone 5A4) with carboxy-terminal hexahistidine tag (VHH)
VHH: QVQLQESGGGWVQPGGSLRLSCAASGFTLDYYGIGWFRQAPGKEREGVSCISSSDGSTYYADSVKGRFTISRDNAKNTVYLQMNSLKPEDTAVYYCATRGASCYYTGSYSLGYDYWGQGTQVTVSS
notes: Lead compound; C-terminal 6His for purified-protein SPR; koff screen used bacterial extracts of the pMECS-GG construct; also called sdAb15.6His; Nr 15
B2: sdAb 16 (clone 5A5) with carboxy-terminal hexahistidine tag (VHH)
VHH: B1 VHH with W11L, A24I, T106S
notes: C-terminal 6His for purified-protein SPR; koff screen used bacterial extracts; also called Nr 16
B3: sdAb 17 (clone 5B7) with carboxy-terminal hexahistidine tag (VHH)
VHH: B1 VHH with W11L, A24V, F27S, D30E
notes: C-terminal 6His for purified-protein SPR; koff screen used bacterial extracts; also called Nr 17
B4: sdAb 18 (clone 5H2) with carboxy-terminal hexahistidine tag (VHH)
VHH: B1 VHH with W11L, V12A, A23T, L29S
notes: C-terminal 6His for purified-protein SPR; koff screen used bacterial extracts; also called Nr 18

Biological target: T1, murine urokinase plasminogen activator receptor, recombinant extracellular domain protein (murine) (UniProt P35456)
T1 sequence (looked up): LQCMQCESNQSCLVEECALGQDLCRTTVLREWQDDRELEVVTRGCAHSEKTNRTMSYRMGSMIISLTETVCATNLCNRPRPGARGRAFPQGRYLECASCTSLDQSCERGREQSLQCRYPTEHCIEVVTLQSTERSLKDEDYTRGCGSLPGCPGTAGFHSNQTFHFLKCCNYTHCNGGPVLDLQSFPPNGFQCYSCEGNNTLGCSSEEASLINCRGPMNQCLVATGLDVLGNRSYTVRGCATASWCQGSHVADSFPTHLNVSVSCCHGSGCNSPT
Assay: SPR, purified sdAbs on recombinant uPAR

| Binder | binding |
| --- | --- |
| B1 | no binding |
| B2 | no binding |
| B3 | no binding |
| B4 | no binding |
